Results taken from patent publication US9295627B2 (priority 2011, dated 2016).
Some of these results come from one statement about several compounds together.

System: medium periodontal diseases
Assay: Volunteer test 2: tooth mobility after mouthwash use, concentration series
Assay type: in vivo, human
Details: aqueous mouthwash, % by mass, Experiment 6 or experimented similarly
Text: • A: A distinct improvement in tooth mobility is observed on a tooth mobility test (or periodontometry) with a pincette compared with that before initiating the test; • B: Somewhat improvement in tooth mobility is observed on a tooth mobility test with a pincette compared with that before initiating the test; and • C: No improvement or rather aggravation is observed on a tooth mobility test with a pincette compared with that before initiating the test.
For adenosine N1-oxide, which had marked the highest improvement effect on periodontal diseases in Experiment 5, it was examined in more detail for its improvement action on periodontal diseases: Eight females, 20- to 30-year-old, as subjects, who were healthy except for suffering from medium periodontal diseases (with a periodontal pocket depth of 3 mm or deeper but less than 6 mm), were subjected to a volunteer test similarly as in Experiment 5 except for using six types of aqueous solutions containing 0.001 to 7.5% adenosine N1-oxide and setting a test period of seven months. […]
The subjects were allowed to brush their teeth with the same toothpaste as used in Experiment 5. […] Before initiating the test, a dental hygienist under a doctor's guidance evaluated the conditions of gingivitis for each subject […] based on the same criteria as shown in Experiment 5.

## Nc1c2ncn([C@@H]3O[C@H](CO)[C@@H](O)[C@H]3O)c2nc[n+]1[O-] [adenosine N1-oxide]
  concentrations at which periodontal diseases are effectively prevented and/or treated: ≥ 0.01%
